Test results from patent US20250283871A1, “COMPOSITIONS AND METHODS FOR MODULATING THE INTERACTION BETWEEN SS18-SSX FUSION ONCOPROTEIN AND NUCLEOSOMES” (Dana-Farber Cancer Institute, Inc., priority 2020, published 2025).

Test system: BAF complex subunits and histone proteins
Assay: Mass spectrometry proteomics of purified HA-SS18 WT and HA-SS18-SSX1 complexes (Tables 5A-5E)
Set-up: species or system human
[1] = HA-SS18SSX1_NE_peptides: protein co-purified with HA-SS18-SSX1 BAF complexes from soluble nuclear extract (NE), HEK-293T cells
[2] = HA-SS18WT_NE_peptides: proteins co-purified with HA-SS18 WT from nuclear extract (NE), HEK-293T
[3] = HA-SS18WT_CHR_peptides: protein identified in HA-SS18 WT BAF complex purification from nuclease-treated solubilized chromatin (CHR), HEK-293T

Row | Molecule | Total (peptides) [1] | Unique (peptides) [1] | Total (peptides) [2] | Unique (peptides) [2] | Total (total peptides) [3] | Unique (unique peptides) [3]
1 | MED23 (protein, UniProt Q9ULK4 1-1368, looked up) Mediator of RNA polymerase II …: METQLQSIFEEVVKTEVIEEAFPGMFMDTPEDEKTKLISCLGAFRQFWGGLSQESHEQCIQWIVKFIHGQHSPKRISFLYDCLAMAVETGLLPPRLVCESLINSDTLEWERTQLWALTFKLVRKIIGGVDYKGVRDLLKVILEKILTIPNTVSSAVVQQLLAAREVIAYILERNACLLPAYFAVTEIRKLYPEGKLPHWLLGNLVSDFVDTFRPTARINSICGRCSLLPVVNNSGAICNSWKLDPATLRFPLKGLLPYDKDLFEPQTALLRYVLEQPYSRDMVCNMLGLNKQHKQRCPVLEDQLVDLVVYAMERSETEEKFDDGGTSQLLWQHLSSQLIFFVLFQFASFPHMVLSLHQKLAGRGLIKGRDHLMWVLLQFISGSIQKNALADFLPVMKLFDLLYPEKEYIPVPDINKPQSTHAFAMTCIWIHLNRKAQNDNSKLQIPIPHSLRLHHEFLQQSLRNKSLQMNDYKIALLCNAYSTNSECFTLPMGALVETIYGNGIMRIPLPGTNCMASGSITPLPMNLLDSLTVHAKMSLIHSIATRVIKLAHAKSSVALAPALVETYSRLLVYMEIESLGIKGFISQLLPTVFKSHAWGILHTLLEMFSYRMHHIQPHYRVQLLSHLHTLAAVAQTNQNQLHLCVESTALRLITALGSSEVQPQFTRFLSDPKTVLSAESEELNRALILTLARATHVTDFFTGSDSIQGTWCKDILQTIMSFTPHNWASHTLSCFPGPLQAFFKQNNVPQESRFNLKKNVEEEYRKWKSMSNENDIITHFSMQGSPPLFLCLLWKMLLETDHINQIGYRVLERIGARALVAHVRTFADFLVYEFSTSAGGQQLNKCIEILNDMVWKYNIVTLDRLILCLAMRSHEGNEAQVCYFIIQLLLLKPNDFRNRVSDFVKENSPEHWLQNDWHTKHMNYHKKYPEKLYFEGLAEQVDPPVQIQSPYLPIYFGNVCLRFLPVFDIVIHRFLELLPVSKSLETLLDHLGGLYKFHDRPVTYLYNTLHYYEMHLRDRAFLKRKLVHAIIGSLKDNRPQGWCLSDTYLKCAMNAREENPWVPDDTYYCRLIGRLVDTMAGKSPGPFPNCDWRFNEFPNPAAHALHVTCVELMALAVSGKEVGNALLNVVLKSQPLVPRENITAWMNAIGLIITALPEPYWIVLHDRIVSVISSPSLTSETEWVGYPFRLFDFTACHQSYSEMSCSYTLALAHAVWHHSSIGQLSLIPKFLTEVLLPIVKTEFQLLYVYHLVGPFLQRFQQERTRCMIEIGVAFYDMLLNVDQCSTHLNYMDPICDFLYHMKYMFTGDSVKEQVEKIICNLKPALKLRLRFITHISKMEPAAVPPQAMNSGSPAPQSNQVPVSLPVTQ | 1 | 1 | 2 | 2 |  | 
2 | NCBP1 (protein, UniProt Q09161 1-790, looked up) Nuclear cap-binding protein …: MSRRRHSDENDGGQPHKRRKTSDANETEDHLESLICKVGEKSACSLESNLEGLAGVLEADLPNYKSKILRLLCTVARLLPEKLTIYTTLVGLLNARNYNFGGEFVEAMIRQLKESLKANNYNEAVYLVRFLSDLVNCHVIAAPSMVAMFENFVSVTQEEDVPQVRRDWYVYAFLSSLPWVGKELYEKKDAEMDRIFANTESYLKRRQKTHVPMLQVWTADKPHPQEEYLDCLWAQIQKLKKDRWQERHILRPYLAFDSILCEALQHNLPPFTPPPHTEDSVYPMPRVIFRMFDYTDDPEGPVMPGSHSVERFVIEENLHCIIKSHWKERKTCAAQLVSYPGKNKIPLNYHIVEVIFAELFQLPAPPHIDVMYTTLLIELCKLQPGSLPQVLAQATEMLYMRLDTMNTTCVDRFINWFSHHLSNFQFRWSWEDWSDCLSQDPESPKPKFVREVLEKCMRLSYHQRILDIVPPTFSALCPANPTCIYKYGDESSNSLPGHSVALCLAVAFKSKATNDEIFSILKDVPNPNQDDDDDEGFSFNPLKIEVFVQTLLHLAAKSFSHSFSALAKFHEVFKTLAESDEGKLHVLRVMFEVWRNHPQMIAVLVDKMIRTQIVDCAAVANWIFSSELSRDFTRLFVWEILHSTIRKMNKHVLKIQKELEEAKEKLARQHKRRSDDDDRSSDRKDGVLEEQIERLQEKVESAQSEQKNLFLVIFQRFIMILTEHLVRCETDGTSVLTPWYKNCIERLQQIFLQHHQIIQQYMVTLENLLFTAELDPHILAVFQQFCALQA | 1 | 1 | 1 | 1 | 1 | 1
3 | PIGK (protein, UniProt Q92643 28-395, looked up) GPI-anchor transamidase: SHIEDQAEQFFRSGHTNNWAVLVCTSRFWFNYRHVANTLSVYRSVKRLGIPDSHIVLMLADDMACNPRNPKPATVFSHKNMELNVYGDDVEVDYRSYEVTVENFLRVLTGRIPPSTPRSKRLLSDDRSNILIYMTGHGGNGFLKFQDSEEITNIELADAFEQMWQKRRYNELLFIIDTCQGASMYERFYSPNIMALASSQVGEDSLSHQPDPAIGVHLMDRYTFYVLEFLEEINPASQTNMNDLFQVCPKSLCVSTPGHRTDLFQRDPKNVLITDFFGSVRKVEITTETIKLQQDSEIMESSYKEDQMDEKLMEPLKYAEQLPVAQIIHQKPKLKDWHPPGGFILGLWALIIMVFFKTYGIKHMKFIF | 1 | 1 | 2 | 2 |  | 
4 | DERL1 (protein, UniProt Q9BUN8 2-251, looked up) Derlin-1: SDIGDWFRSIPAITRYWFAATVAVPLVGKLGLISPAYLFLWPEAFLYRFQIWRPITATFYFPVGPGTGFLYLVNLYFLYQYSTRLETGAFDGRPADYLFMLLFNWICIVITGLAMDMQLLMIPLIMSVLYVWAQLNRDMIVSFWFGTRFKACYLPWVILGFNYIIGGSVINELIGNLVGHLYFFLMFRYPMDLGGRNFLSTPQFLYRWLPSRRGGVSGFGVPPASMRRAADQNGGGGRHNWGQGFRLGDQ | 1 | 1 | 1 | 1 |  | 
5 | DDX50 (protein, UniProt Q9BQ39 1-737, looked up) ATP-dependent RNA helicase …: MPGKLLWGDIMELEAPLEESESQKKERQKSDRRKSRHHYDSDEKSETRENGVTDDLDAPKAKKSKMKEKLNGDTEEGFNRLSDEFSKSHKSRRKDLPNGDIDEYEKKSKRVSSLDTSTHKSSDNKLEETLTREQKEGAFSNFPISEETIKLLKGRGVTYLFPIQVKTFGPVYEGKDLIAQARTGTGKTFSFAIPLIERLQRNQETIKKSRSPKVLVLAPTRELANQVAKDFKDITRKLSVACFYGGTSYQSQINHIRNGIDILVGTPGRIKDHLQSGRLDLSKLRHVVLDEVDQMLDLGFAEQVEDIIHESYKTDSEDNPQTLLFSATCPQWVYKVAKKYMKSRYEQVDLVGKMTQKAATTVEHLAIQCHWSQRPAVIGDVLQVYSGSEGRAIIFCETKKNVTEMAMNPHIKQNAQCLHGDIAQSQREITLKGFREGSFKVLVATNVAARGLDIPEVDLVIQSSPPQDVESYIHRSGRTGRAGRTGICICFYQPRERGQLRYVEQKAGITFKRVGVPSTMDLVKSKSMDAIRSLASVSYAAVDFFRPSAQRLIEEKGAVDALAAALAHISGASSFEPRSLITSDKGFVTMTLESLEEIQDVSCAWKELNRKLSSNAVSQITRMCLLKGNMGVCFDVPTTESERLQAEWHDSDWILSVPAKLPEIEEYYDGNTSSNSRQRSGWSSGRSGRSGRSGGRSGGRSGRQSRQGSRSGSRQDGRRRSGNRNRSRSGGHKRSFD | 1 | 1 |  |  |  | 
